One assay has as its target Ubc9 (P50550) (human). The assay can be described thus: yeast two-hybrid screen, 66214pep as bait against a human heart cDNA library.
In another assay the target is Rad6 (U38785) (human). The assay is described as above.

No constants are given. Whether binding was seen depends on the method and setting. A result given as binding can be weak or reduced; the word gives no strength.

B1: 66214pep (protein)
chain: MYMSKQPVSNVRAIQANINIPMGAFRPGAGQPPRRKECTPEVEEGVPPTSDEEKKPIPGAKKLPGPAVNLSEIQNIKSELKYVPKAEQ
Consider B1, for which the binding result with Ubc9 (P50550) (human) and with Rad6 (U38785) (human) was “binds” in each case.

For the origin of these results see patent US20040072170A1.
